These results are taken from paper doi:10.1101/2022.03.17.484727.

Chains of the proteins cited; added tags and fusions are not shown. Lines headed by an entry give the natural chain unless they say otherwise; changes in a name come on top.
UniProt Q14258: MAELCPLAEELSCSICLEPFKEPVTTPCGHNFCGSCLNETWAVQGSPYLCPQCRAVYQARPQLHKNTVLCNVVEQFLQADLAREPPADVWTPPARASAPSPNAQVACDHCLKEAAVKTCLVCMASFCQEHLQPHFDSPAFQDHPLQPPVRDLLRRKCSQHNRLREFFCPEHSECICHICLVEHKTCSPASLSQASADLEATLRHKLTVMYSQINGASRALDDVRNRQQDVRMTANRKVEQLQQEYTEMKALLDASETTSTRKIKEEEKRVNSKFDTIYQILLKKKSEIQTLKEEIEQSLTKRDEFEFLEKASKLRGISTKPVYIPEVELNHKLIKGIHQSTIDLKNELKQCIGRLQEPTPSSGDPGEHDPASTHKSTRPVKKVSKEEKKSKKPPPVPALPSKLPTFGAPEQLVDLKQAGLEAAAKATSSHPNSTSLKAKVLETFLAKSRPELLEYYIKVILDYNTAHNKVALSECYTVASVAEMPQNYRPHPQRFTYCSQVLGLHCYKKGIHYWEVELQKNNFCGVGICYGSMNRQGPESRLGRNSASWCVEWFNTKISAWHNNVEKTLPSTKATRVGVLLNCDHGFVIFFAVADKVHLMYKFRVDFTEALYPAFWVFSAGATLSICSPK
UniProt P15531: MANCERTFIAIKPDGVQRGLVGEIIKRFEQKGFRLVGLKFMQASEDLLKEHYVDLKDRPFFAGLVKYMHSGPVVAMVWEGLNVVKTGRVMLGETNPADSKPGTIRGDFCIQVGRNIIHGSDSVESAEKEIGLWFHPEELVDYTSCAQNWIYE

Read-outs that look alike come from different tables or passages of the source. No constants are given. Whether binding was seen depends on the method and setting. Binding seen in cells or lysates may run through a third protein. These calls come from enrichment with a bait or labelling near it, and not all partners need be listed.

Test in all cases: affinity purification with mass spectrometry
The target in experiment [1] is FLAG-tagged TRIM25 wild-type (human) (UniProt Q14258).
Experiment [2] addresses FLAG-tagged TRIM25-R54P (human) (UniProt Q14258).
The target of experiment [3] is FLAG-tagged TRIM25 wild-type (human) (UniProt Q14258). This is another data set of the same source.
Experiment [4] concerns the target FLAG-tagged TRIM25-R54P (human) (UniProt Q14258). The source holds these as a separate data set.

“endogenous G3BP1 (from UniProt Q13283 1-466)”: the binding result in experiment [1] and in experiment [2] was “binds” throughout.

As for “endogenous NME1 (from UniProt P15531 1-152) (enzyme)”, the binding result in experiment [1] and in experiment [2] was “binds” throughout.

B1: endogenous UPF1 (protein, UniProt Q92900 1-1129)
chain: MSVEAYGPSSQTLTFLDTEEAELLGADTQGSEFEFTDFTLPSQTQTPPGGPGGPGGGGAGGPGGAGAGAAAGQLDAQVGPEGILQNGAVDDSVAKTSQLLAELNFEEDEEDTYYTKDLPIHACSYCGIHDPACVVYCNTSKKWFCNGRGNTSGSHIVNHLVRAKCKEVTLHKDGPLGETVLECYNCGCRNVFLLGFIPAKADSVVVLLCRQPCASQSSLKDINWDSSQWQPLIQDRCFLSWLVKIPSEQEQLRARQITAQQINKLEELWKENPSATLEDLEKPGVDEEPQHVLLRYEDAYQYQNIFGPLVKLEADYDKKLKESQTQDNITVRWDLGLNKKRIAYFTLPKTDSGNEDLVIIWLRDMRLMQGDEICLRYKGDLAPLWKGIGHVIKVPDNYGDEIAIELRSSVGAPVEVTHNFQVDFVWKSTSFDRMQSALKTFAVDETSVSGYIYHKLLGHEVEDVIIKCQLPKRFTAQGLPDLNHSQVYAVKTVLQRPLSLIQGPPGTGKTVTSATIVYHLARQGNGPVLVCAPSNIAVDQLTEKIHQTGLKVVRLCAKSREAIDSPVSFLALHNQIRNMDSMPELQKLQQLKDETGELSSADEKRYRALKRTAERELLMNADVICCTCVGAGDPRLAKMQFRSILIDESTQATEPECMVPVVLGAKQLILVGDHCQLGPVVMCKKAAKAGLSQSLFERLVVLGIRPIRLQVQYRMHPALSAFPSNIFYEGSLQNGVTAADRVKKGFDFQWPQPDKPMFFYVTQGQEEIASSGTSYLNRTEAANVEKITTKLLKAGAKPDQIGIITPYEGQRSYLVQYMQFSGSLHTKLYQEVEIASVDAFQGREKDFIILSCVRANEHQGIGFLNDPRRLNVALTRARYGVIIVGNPKALSKQPLWNHLLNYYKEQKVLVEGPLNNLRESLMQFSKPRKLVNTINPGARFMTTAMYDAREAIIPGSVYDRSSQGRPSSMYFQTHDQIGMISAGPSHVAAMNIPIPFNLVMPPMPPPGYFGQANGPAAGRGTPKGKTGRGGRQKNRFGLPGPSQTNLPNSQASQDVASQPFSQGALTQGYISMSQPSQMSQPGLSQPELSQDSYLGDEFKSQIDVALSQDSTYQGERAYQHGGVTGLSQY
For B1, the binding result in experiment [3] and in experiment [4] was “binds” in each case.

B2: endogenous G3BP2 (protein, UniProt Q9UN86 1-482)
chain: MVMEKPSPLLVGREFVRQYYTLLNKAPEYLHRFYGRNSSYVHGGVDASGKPQEAVYGQNDIHHKVLSLNFSECHTKIRHVDAHATLSDGVVVQVMGLLSNSGQPERKFMQTFVLAPEGSVPNKFYVHNDMFRYEDEVFGDSEPELDEESEDEVEEEQEERQPSPEPVQENANSGYYEAHPVTNGIEEPLEESSHEPEPEPESETKTEELKPQVEEKNLEELEEKSTTPPPAEPVSLPQEPPKAFSWASVTSKNLPPSGTVSSSGIPPHVKAPVSQPRVEAKPEVQSQPPRVREQRPRERPGFPPRGPRPGRGDMEQNDSDNRRIIRYPDSHQLFVGNLPHDIDENELKEFFMSFGNVVELRINTKGVGGKLPNFGFVVFDDSEPVQRILIAKPIMFRGEVRLNVEEKKTRAARERETRGGGDDRRDIRRNDRGPGGPRGIVGGGMMRDRDGRGPPPRGGMAQKLGSGRGTGQMEGRFTGQRR
Take B2: the binding entry in experiment [3] and in experiment [4] was “binds” each time.

B3: MOV10 (protein, UniProt Q9HCE1 1-1003)
chain: MPSKFSCRQLREAGQCFESFLVVRGLDMETDRERLRTIYNRDFKISFGTPAPGFSSMLYGMKIANLAYVTKTRVRFFRLDRWADVRFPEKRRMKLGSDISKHHKSLLAKIFYDRAEYLHGKHGVDVEVQGPHEARDGQLLIRLDLNRKEVLTLRLRNGGTQSVTLTHLFPLCRTPQFAFYNEDQELPCPLGPGECYELHVHCKTSFVGYFPATVLWELLGPGESGSEGAGTFYIARFLAAVAHSPLAAQLKPMTPFKRTRITGNPVVTNRIEEGERPDRAKGYDLELSMALGTYYPPPRLRQLLPMLLQGTSIFTAPKEIAEIKAQLETALKWRNYEVKLRLLLHLEELQMEHDIRHYDLESVPMTWDPVDQNPRLLTLEVPGVTESRPSVLRGDHLFALLSSETHQEDPITYKGFVHKVELDRVKLSFSMSLLSRFVDGLTFKVNFTFNRQPLRVQHRALELTGRWLLWPMLFPVAPRDVPLLPSDVKLKLYDRSLESNPEQLQAMRHIVTGTTRPAPYIIFGPPGTGKTVTLVEAIKQVVKHLPKAHILACAPSNSGADLLCQRLRVHLPSSIYRLLAPSRDIRMVPEDIKPCCNWDAKKGEYVFPAKKKLQEYRVLITTLITAGRLVSAQFPIDHFTHIFIDEAGHCMEPESLVAIAGLMEVKETGDPGGQLVLAGDPRQLGPVLRSPLTQKHGLGYSLLERLLTYNSLYKKGPDGYDPQFITKLLRNYRSHPTILDIPNQLYYEGELQACADVVDRERFCRWAGLPRQGFPIIFHGVMGKDEREGNSPSFFNPEEAATVTSYLKLLLAPSSKKGKARLSPRSVGVISPYRKQVEKIRYCITKLDRELRGLDDIKDLKVGSVEEFQGQERSVILISTVRSSQSFVQLDLDFNLGFLKNPKRFNVAVTRAKALLIIVGNPLLLGHDPDWKVFLEFCKENGGYTGCPFPAKLDLQQGQNLLQGLSKLSPSTSGPHSHDYLPQEREGEGGLSLQVEPEWRNEL
Regarding B3, the binding result in experiment [4] is “binds”.

B4: RTRAF (protein, UniProt Q9Y224 1-244)
chain: MFRRKLTALDYHNPAGFNCKDETEFRNFIVWLEDQKIRHYKIEDRGNLRNIHSSDWPKFFEKYLRDVNCPFKIQDRQEAIDWLLGLAVRLEYGDNAEKYKDLVPDNSKTADNATKNAEPLINLDVNNPDFKAGVMALANLLQIQRHDDYLVMLKAIRILVQERLTQDAVAKANQTKEGLPVALDKHILGFDTGDAVLNEAAQILRLLHIEELRELQTKINEAIVAVQAIIADPKTDHRLGKVGR
With B4, the binding entry in experiment [4] is listed as “binds”.
